These are yes or no findings as the source states them, for the method shown. Binding seen in cells or lysates may run through a third protein. Some entries that bind do so weakly or less than the wild type.
Biological target: Flag-PCNA (UniProt P12004)
Assay: co-IP; lysate of transfected HEK293/293T cells on anti-FLAG M2 agarose beads, 4°C for 4 h, eluted with 3 x Flag peptide, immunoblot; cells treated with or without 10 μM FEN1i (LNT-1) for 16 h

Sequences of proteins named here, by UniProt entry; tags and fusion partners are left off.
UniProt P12004: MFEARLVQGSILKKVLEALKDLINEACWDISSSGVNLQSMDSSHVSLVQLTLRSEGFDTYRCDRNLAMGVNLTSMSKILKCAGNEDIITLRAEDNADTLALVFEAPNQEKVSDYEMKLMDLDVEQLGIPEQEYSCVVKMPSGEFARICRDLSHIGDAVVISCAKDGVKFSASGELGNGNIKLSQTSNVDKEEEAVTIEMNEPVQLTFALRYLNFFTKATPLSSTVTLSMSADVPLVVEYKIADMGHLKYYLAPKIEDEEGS

B1: XPF (protein, UniProt Q92889 1-916)
chain: MESGQPARRIAMAPLLEYERQLVLELLDTDGLVVCARGLGADRLLYHFLQLHCHPACLVLVLNTQPAEEEYFINQLKIEGVEHLPRRVTNEITSNSRYEVYTQGGVIFATSRILVVDFLTDRIPSDLITGILVYRAHRIIESCQEAFILRLFRQKNKRGFIKAFTDNAVAFDTGFCHVERVMRNLFVRKLYLWPRFHVAVNSFLEQHKPEVVEIHVSMTPTMLAIQTAILDILNACLKELKCHNPSLEVEDLSLENAIGKPFDKTIRHYLDPLWHQLGAKTKSLVQDLKILRTLLQYLSQYDCVTFLNLLESLRATEKAFGQNSGWLFLDSSTSMFINARARVYHLPDAKMSKKEKISEKMEIKEGEETKKELVLESNPKWEALTEVLKEIEAENKESEALGGPGQVLICASDDRTCSQLRDYITLGAEAFLLRLYRKTFEKDSKAEEVWMKFRKEDSSKRIRKSHKRPKDPQNKERASTKERTLKKKKRKLTLTQMVGKPEELEEEGDVEEGYRREISSSPESCPEEIKHEEFDVNLSSDAAFGILKEPLTIIHPLLGCSDPYALTRVLHEVEPRYVVLYDAELTFVRQLEIYRASRPGKPLRVYFLIYGGSTEEQRYLTALRKEKEAFEKLIREKASMVVPEEREGRDETNLDLVRGTASADVSTDTRKAGGQEQNGTQQSIVVDMREFRSELPSLIHRRGIDIEPVTLEVGDYILTPEMCVERKSISDLIGSLNNGRLYSQCISMSRYYKRPVLLIEFDPSKPFSLTSRGALFQEISSNDISSKLTLLTLHFPRLRILWCPSPHATAELFEELKQSKPQPDAATALAITADSETLPESEKYNPGPQDFLLKMPGVNAKNCRSLMHHVKNIAELAALSQDELTSILGNAANAKQLYDFIHTSFAEVVSKGKGKK
With B1 the binding was “binds”.
